# Reference: PubChem BioAssay AID1471 (National Center for Advancing Translational Sciences (NCATS), 2008)
# Where “and” joins values, the source holds several entries; their conditions need not be identical. Identical values can stand only once. The campaign covered roughly 230,000 compounds. About 310 (0.13%) were called active. The inconclusive results got no clear call from the source; some entries with a clear call stand among them for comparison. Calls follow the shape of the dose curve; as a rule, active = well fitted activation curve with a large enough effect; inconclusive = small, poorly fitted or top-dose-only effect; inactive = no such curve, though single readings can be large or run the other way. Where the call is inconclusive, the potency comes from a doubtful curve fit.
# Test: qHTS Multiplex Assay to Identify Dual Action Probes in a Cell Model of Huntington: Cytoprotection (ATP); also: nearly all actives have a fitted effect of over 45% in size;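 as to cytoprotection (ATP increase): toxic huntingtin expression switched on by the ecdysone agonist tebufenozide; % of control where 0% means no effect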
# Conditions: PC12 HTT-Q103 induced, ATP luminescence, 40 h; cytoprotection (ATP increase): at 56.4 µM (top of the series)
# How it was run: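 Compounds were screened for protection of PC12 cells against cell death after tebufenozide induction (100 nM final) of mutant Huntingtin exon 1 (Q103) fused to GFP.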
# Potency is read from the fitted curve at half-maximal effect.
SMILES,Potency,cytoprotection (ATP increase)
CCCCn1c(O)c(C(CC)=NC(C)c2ccccc2)c(=O)[nH]c1=O (centres undefined),inactive,
COc1ccc2[nH]c(C)c(CCNCc3cc(OC)c(OC)c(OC)c3)c2c1,"inconclusive: 0.447 µM [activator, single point]",
CCCCn1c(O)c(C=NCCN2CCCCC2)c(=O)[nH]c1=O,"inconclusive: 0.501 µM [activator, partial curve]",
CC(=O)NCCc1c[nH]c2ccccc12,"inconclusive: 1.12 µM [activator, single point]",
C=CCOC(Cn1ccnc1)c1ccc(Cl)cc1Cl (centres undefined),"inconclusive: 5.62 µM [activator, partial curve, poor fit]",
c1ccc2c(c1)CCNC2,"inconclusive: 0.0251 µM [activator, full curve, poor fit]",
O=[N+]([O-])c1ccccc1O,"inconclusive: 5.62 µM [activator, single point]",
O=C(O)[C@H](Cc1cnc[nH]1)N1C(=O)c2ccccc2C1=O,,inactive: -1.08% [at 10 µM]
CCNC(=O)[C@@H]1O[C@@H](n2cnc3c(N)ncnc32)[C@H](O)[C@H]1O,"inconclusive: 1 µM [activator, partial curve]",
Clc1cccc(SC2CCNCC2)n1,"inconclusive: 31.6 µM [activator, partial curve]",
CC(=O)[C@@H]1CC[C@H]2[C@H]3CC[C@H]4C[C@@H](O)CC[C@]4(C)[C@@H]3C(=O)C[C@@]12C,"inconclusive: 0.282 µM [activator, partial curve, poor fit]",
CP(=O)(O)CCCN,"inconclusive: 25.1 µM [activator, single point]",
O=C(CCCN1CCC2(CC1)C(=O)N(CCc1ccc(N=C=S)cc1)CN2c1ccccc1)c1ccc(F)cc1,"inconclusive: 0.001 µM [activator, full curve]",
O=C(O)[C@@H](O)[C@@H](O)[C@@H]1[O][Sb][O][C@@H]1CO,"inconclusive: 3.16 µM [activator, single point]",
N[C@H]1C[C@H]1c1ccccc1,"inconclusive: 8.91 µM [activator, single point]",
CCN(CC)C(=O)N[C@@H]1C=C2c3cccc4[nH]cc(c34)C[C@H]2N(C)C1,"inconclusive: 1 µM [activator, full curve, poor fit]",
Cn1c(=O)n(C)c2cc([N+](=O)[O-])c(N3CCNCC3)cc21,"inconclusive: 31.6 µM [activator, single point]",
COc1ccc(C[C@H]2c3cc(OC)c(OC)cc3CCN2C)cc1OC,"inconclusive: 15.8 µM [activator, single point]",
C/C=C1/CN2CC[C@]34C(=C(C=O)[C@H]1C[C@@H]23)Nc1ccccc14,"inconclusive: 0.631 µM [activator, single point]",
CNC(C)(C)Cc1ccccc1,"inconclusive: 1.26 µM [activator, single point]",
CCOP(=S)(OCC)Oc1cc(C)nc(C(C)C)n1,"inconclusive: 39.8 µM [activator, single point]",
CC(C)N(Cc1ccco1)/N=C/c1c(O)n(Cc2ccccc2)c(=O)[nH]c1=O,,inactive: 12.9% [at 10 µM]

SMILES,Potency,cytoprotection (ATP increase)
CCN1C(=O)NC(=O)/C(=C\c2ccc(N3CCOCC3)cc2OC)C1=O,inactive,
O=C(O)C(Cl)(Cl)Br,inactive,
c1ccc(N2CCCC3(CCNCC3)C2)cc1,"inconclusive: 0.501 µM [activator, full curve, poor fit]",
C[C@@H]1O[C@H](O[C@H]2C[C@@H](O)[C@@]3(CO)[C@H]4[C@@H](O)C[C@]5(C)[C@@H](C6=CC(=O)OC6)CC[C@]5(O)[C@H]4CC[C@]3(O)C2)[C@@H](O)[C@H](O)[C@@H]1O,"inconclusive: 0.0501 µM [activator, full curve, poor fit]",
C[C@@H](Cc1ccc(O)cc1)NC[C@@H](O)c1cc(O)cc(O)c1,"inconclusive: 1.3 nM [activator] and inconclusive: 14.1 µM [activator, single point]",
C[C@]12CCC(=O)C=C1CC[C@@H]1[C@@H]2CC[C@@]2(C)[C@H]1CC[C@]2(C)O,"inconclusive: 3.98 µM [activator, single point]",
COc1cccc(-n2c(O)c(C=NCCN3CCOCC3)c(=O)[nH]c2=O)c1,"inconclusive: 2.82 µM [activator, partial curve]",
c1ccc(CCCN2CCN(CCOC(c3ccccc3)c3ccccc3)CC2)cc1,"inconclusive: 0.002 µM [activator, full curve, poor fit]",
Cc1nc2cc(C(=O)N3CCC4(CC3)OCCO4)ccc2n1-c1ccc(Br)cc1,inactive,
ClCCBr,"inconclusive: 39.8 µM [activator, single point]",
O=C1NC(=S)N(c2ccc(F)cc2)C(=O)/C1=C\c1ccoc1,"inconclusive: 3.55 µM [activator, partial curve]",
CN1CCc2nc3sc(C#N)c(N)c3c(-c3cccs3)c2C1,active: 12.6 µM,
CC1C(=O)OC2C1CC[C@@]1(C)C=CC(=O)[C@@]3(C)O[C@@]213 (some centres undefined),active: 35.5 µM,
COc1ccc2[nH]cc(CCN(C)C)c2c1,inconclusive: 0.0013 µM [activator],
COc1ccc(N=C(C)c2c(O)n(C)c(=O)n(C)c2=O)c(OC)c1,"inconclusive: 20 µM [activator, single point]",
COc1cc2c(cc1OC)C(C(=O)N1CCC3(CC1)OCCO3)C(c1ccccc1F)N(C)C2=O (centres undefined),"inconclusive: 3.98 µM [activator, single point]",
CC1=CC[C@@H]2[C@@H](C1)c1c(O)cc(CC#CCCCNS(C)(=O)=O)cc1OC2(C)C,"inconclusive: 25.1 µM [activator, single point]",
C[N+](C)(C)CC(=O)[O-],"inconclusive: 5.62 µM [activator, single point]",
CCN[C@]1(c2cccs2)CCCCC1=O,"inconclusive: 5.62 µM [activator, partial curve, poor fit]",
CC(C)C(Br)C(=O)NC(N)=O (centres undefined),"inconclusive: 0.562 µM [activator, single point]",
CN1CCN(c2ccc(F)cc2N)CC1,"inconclusive: 0.1 µM [activator, partial curve]",
C[C@H](NC(=O)[C@@H](N)Cc1ccc(O)cc1)C(=O)N[C@@H](Cc1ccccc1)C(=O)NCC(=O)N[C@@H](Cc1ccc(O)cc1)C(=O)N1CCC[C@H]1C(=O)N[C@@H](CO)C(N)=O,"inconclusive: 12.6 µM [activator, single point]",

SMILES,Potency,cytoprotection (ATP increase)
C=C[C@]12CN(C)[C@H]3C1[C@@]1(C(=O)Nc4ccccc41)[C@H]1C[C@H]2[C@H]3CO1,"inconclusive: 2 µM [activator, full curve, poor fit]",
O=C1NC(=O)C(=CN2CCc3ccccc32)C(=O)N1,,inactive: -0.959% [at 10 µM]
O=c1[nH]sc2cc(F)ccc12,"inconclusive: 2.82 µM [activator, partial curve]",
CCC1(c2ccccc2)C(=O)NC(=O)NC1=O,"inconclusive: 11.2 µM [activator, partial curve]",
O=c1ccc2cc(O[C@H]3O[C@@H](CO)[C@@H](O)[C@@H](O)[C@@H]3O)c(O)cc2o1,"inconclusive: 0.199 µM [activator, full curve, poor fit]",
CS(=N)(=O)CC[C@@H](N)C(=O)O (some centres undefined),"inconclusive: 11.2 µM [activator, partial curve, poor fit]",
Cc1cccc(OCC(=O)N2CCN(Cc3cccnc3)CC2)c1,"inconclusive: 5.62 µM [activator, single point]",
Cc1ccc(OCC(=O)N2CCN(C)CC2)c(Br)c1,inactive,
CN1CCC(O)(c2ccc(F)cc2)C(C(=O)c2ccc(F)cc2)C1 (centres undefined),"inconclusive: 22.4 µM [activator, partial curve, poor fit]",
COc1ccc(NP(=O)(Oc2ccc(Cl)cc2)Oc2ccc(Cl)cc2)cc1OC,"inconclusive: 0.794 µM [activator, single point]",
Cc1nc2ccccc2cc1C[N+]12CN3CN(CN(C3)C1)C2,,inactive: -2.29% [at 10 µM]
C[C@H]1CC[C@@]2(NC1)O[C@@H]1C[C@H]3[C@@H]4CC=C5C[C@@H](O)CC[C@]5(C)[C@@H]4CC[C@]3(C)[C@@H]1[C@@H]2C,"inconclusive: 0.251 µM [activator, full curve, poor fit]",
CCCCC/C=C\C/C=C\C/C=C\C/C=C\CCCC(=O)N[C@H](C)CO,"inconclusive: 1.12 µM [activator, full curve]",
CC1CCCC(C2(O)C(=O)Nc3ccccc32)C1=O (centres undefined),inactive,
c1ccc([Se]c2c(-c3ccccc3)[se]c3ccccc23)cc1,inactive,
CCCC(C)C1(CC)C(=O)NC(=O)NC1=O (centres undefined),"inconclusive: 0.794 µM [activator, single point]",
COP(=O)(OC)C(O)C(Cl)(Cl)Cl (centres undefined),"inconclusive: 11.2 µM [activator, partial curve, poor fit]",
CN1CC[C@@]2(c3cccc(O)c3)Cc3nc4ccccc4cc3C[C@H]2C1,"inconclusive: 10 µM [activator, partial curve, poor fit]",
O=c1ccc(=O)[nH][nH]1,"inconclusive: 5.62 µM [activator, single point]",
CC(=O)OC1CC2C(C)(C)C(O)C=C[C@@]2(C)C2CC[C@]3(C)C(=CC(=O)OC3c3ccoc3)[C@]12C (some centres undefined),"inconclusive: 31.6 µM [activator, partial curve, poor fit]",
